# Experimental data: patent US20060024667A1
# Sequences of proteins named here, by UniProt entry; tags and fusion partners are left off. Residues count along the entry.
# UniProt P05067, residues 672-713: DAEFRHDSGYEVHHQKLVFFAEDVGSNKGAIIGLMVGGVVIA
# Results are given in words; binding and its absence hold for the method and conditions named. Some results given as binding are weak or reduced against the parent protein; the word gives no strength.
# B1: mouse anti-Aβ42 scFv clone AM 3.26 (phage-displayed) (scFv)
# scFv: QVKLQQWGTEVVKPGASVKLSCKASGYIFTSYDIDWVRQTPEQGLEWIGWIFPGEGSTEYNEKFKGRATLSVDKSSSTAYMELTRLTSEDSAVYFCARGDYYRRYFDLWGQGTTVTVSSCGGGSGGGGSGGGGSDIELTQSPAIMSASPGERVTMTCSASSSIRYIYWYQQKPGSSPRLLIYDTSNVAPGVPFRFSGSGSGTSYSLTINRMEAEDAATYYCQEWSGYPYTFGGGTKLELKR
# Biological target: human amyloid-beta peptide (Aβ42), wild-type (human) (UniProt P05067)
# Assay: phage ELISA, Aβ42-coated plate, anti-M13 HRP
binder,measurement,value
B1,binding,binds
